Source: paper PMC3814315
Results are given in words; binding and its absence hold for the method and conditions named. Binding seen in cells or lysates may run through a third protein. Binding can be weak; no strength is given. Sequences can lack the tags named with a protein.

Molecular target: GFP-dPNUTS-Myc (D. melanogaster) (UniProt Q70HU3)
Assay: co-IP; S2 cells transfected with Flag-Myc-dWdr82, GFP-dPNUTS-Myc or both; ectopic dPNUTS precipitated with GFP-Trap beads, Western blotting with anti-Myc antibodies

B1: Flag-Myc-dWdr82 (Drosophila Wdr82) (protein, UniProt Q9VLN1 1-317)
chain: MKIKLIDSVVRSFKVAKIFRENTDKINAIDFAPNGEHLISCSEDDQIVIYDCEKGTQSRTVNSKKYGVDLIHFTHANNTAIHSSTKVDDTIRYLSLHDNKYLRYFPGHTKKVISLCISPVEDTFLSGSLDKTLRLWDLRSPNCQGLMHLSGRPIAAYDPEGLIFAAGVNSESIKLYDLRSFDKGPFVTFKLNQEKECDWTGLKFSRDGKTILISTNGSVIRLVDAFHGTPLQTFTGYPNNKGIPIEASFSPDSQFIFSGSTDGRVHIWNADTGNKVSVLNGDHPGPVQCVQFNPKYMMLASACTNMAFWLPTSEEGL
- binding: binds
